This note sets out measurements from PMC2174531.

Sequences of proteins named here, by UniProt entry; tags and fusion partners are left off.
UniProt P38398: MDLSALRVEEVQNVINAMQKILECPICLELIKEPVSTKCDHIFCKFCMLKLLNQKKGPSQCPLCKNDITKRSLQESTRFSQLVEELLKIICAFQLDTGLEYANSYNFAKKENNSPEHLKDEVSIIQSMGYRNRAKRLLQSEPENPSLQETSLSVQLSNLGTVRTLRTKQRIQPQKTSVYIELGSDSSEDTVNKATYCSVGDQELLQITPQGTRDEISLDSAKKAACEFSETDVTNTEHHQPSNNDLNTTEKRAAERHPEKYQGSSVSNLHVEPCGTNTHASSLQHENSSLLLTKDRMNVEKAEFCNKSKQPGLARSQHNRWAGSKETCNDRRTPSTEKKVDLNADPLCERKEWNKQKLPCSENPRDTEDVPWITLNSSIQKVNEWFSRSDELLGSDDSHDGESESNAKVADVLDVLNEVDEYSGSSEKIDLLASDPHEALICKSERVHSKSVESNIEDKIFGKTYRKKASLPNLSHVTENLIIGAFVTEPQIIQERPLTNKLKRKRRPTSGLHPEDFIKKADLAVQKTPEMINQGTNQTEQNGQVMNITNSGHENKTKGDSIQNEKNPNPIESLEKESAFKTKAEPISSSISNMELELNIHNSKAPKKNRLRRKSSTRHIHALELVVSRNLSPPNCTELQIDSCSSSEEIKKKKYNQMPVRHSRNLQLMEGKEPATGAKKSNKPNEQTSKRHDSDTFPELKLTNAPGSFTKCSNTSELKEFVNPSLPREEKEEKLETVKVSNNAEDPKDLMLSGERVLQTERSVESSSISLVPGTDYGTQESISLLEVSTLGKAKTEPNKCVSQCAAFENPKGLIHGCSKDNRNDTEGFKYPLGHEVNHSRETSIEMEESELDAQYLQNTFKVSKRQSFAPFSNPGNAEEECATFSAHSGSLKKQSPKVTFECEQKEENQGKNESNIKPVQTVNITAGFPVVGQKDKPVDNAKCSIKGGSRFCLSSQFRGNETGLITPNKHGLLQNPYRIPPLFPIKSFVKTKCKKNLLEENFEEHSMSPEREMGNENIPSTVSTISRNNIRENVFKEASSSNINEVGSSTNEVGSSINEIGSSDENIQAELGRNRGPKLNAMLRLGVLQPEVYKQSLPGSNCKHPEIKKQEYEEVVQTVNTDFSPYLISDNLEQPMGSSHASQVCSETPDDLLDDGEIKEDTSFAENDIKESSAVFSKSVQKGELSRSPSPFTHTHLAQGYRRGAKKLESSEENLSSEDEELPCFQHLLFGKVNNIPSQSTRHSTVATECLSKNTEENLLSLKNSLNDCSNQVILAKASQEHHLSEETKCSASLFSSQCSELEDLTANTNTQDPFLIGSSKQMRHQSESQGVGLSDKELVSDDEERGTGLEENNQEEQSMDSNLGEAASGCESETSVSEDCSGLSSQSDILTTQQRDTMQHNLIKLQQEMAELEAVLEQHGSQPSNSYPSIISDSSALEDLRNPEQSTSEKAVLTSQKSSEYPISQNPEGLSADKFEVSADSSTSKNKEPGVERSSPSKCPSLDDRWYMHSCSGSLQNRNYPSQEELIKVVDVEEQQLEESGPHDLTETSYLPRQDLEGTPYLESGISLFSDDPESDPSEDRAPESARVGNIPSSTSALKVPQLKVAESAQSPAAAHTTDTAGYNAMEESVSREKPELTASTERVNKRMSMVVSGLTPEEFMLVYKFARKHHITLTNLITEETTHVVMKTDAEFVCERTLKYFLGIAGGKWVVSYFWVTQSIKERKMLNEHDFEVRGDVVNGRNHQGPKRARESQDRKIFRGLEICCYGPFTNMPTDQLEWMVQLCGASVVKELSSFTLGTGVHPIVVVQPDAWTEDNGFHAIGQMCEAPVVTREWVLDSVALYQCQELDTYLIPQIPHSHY

The target of this test is BRCA1 (full-length wild type, expressed in yeast from the GAL::BRCA1 plasmid) (human) (UniProt P38398). Briefly: co-IP; yeast whole cell lysates co-expressing BRCA1 and Spt4-V5, prepared in various concentrations of NP40; IP overnight at 4°C with anti-BRCA1 antibody (MS110) or normal mouse IgG; blot with anti-V5; maximal at 0.8% NP40.

These are yes or no findings as the source states them, for the method shown. In cells and extracts the contact can be indirect. Some binding calls cover weakened binding; strength is not graded here. Where a sequence is shown, tags or fusion partners need not be part of it.

B1: V5 tagged Spt4p (protein, UniProt P32914 1-102)
chain: MSSERACMLCGIVQTTNEFNRDGCPNCQGIFEEAGVSTMECTSPSFEGLVGMCKPTKSWVAKWLSVDHSIAGMYAIKVDGRLPAEVVELLPHYKPRDGSQVE
Take B1: the binding entry was “binds”.
